Measurements reported in PubChem BioAssay AID685 (PCMD, 2007).
Some of the results follow.

Assay: S. cerevisiae growth inhibition, turbidity – wild-type and eIF2Bepsilon R284H mutant, A595, cytotoxicity control for eIF2B function restoration project, primary screen (AID 685);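 further: 0% = untreated cell controls and 100% = YPD media blanks without cells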
Details: 16 h, stronger effect = higher value, screened at 25 µM (by protocol)
Procedure, shortened: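 System – wild-type and eIF2Bepsilon-R284H mutant S. cerevisiae, screened separately · Measured by – absorbance at 595 nm (turbidity) · Timing – 16 h compound exposure during growth at 30 °C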

SMILES	growth inhibition [%]
O=C(OC1CN2CCC1CC2)c1cccc(Cl)c1 (stereo not given)	-23.8
COC(=O)c1cc2c(s1)N=C(c1ccccc1)N(C)P2(=O)N1CCOCC1 (stereo not given)	0
O=P1(Nc2nc3ccc(Cl)cc3s2)COc2ccccc2O1 (stereo not given)	14.8
CN1CCCC(OC(=O)C(c2ccccc2)c2ccccc2)C1 (stereo not given)	-3.33
COc1ccc(OP(C)(=O)Nc2ccccn2)cc1 (stereo not given)	17.6
COc1ccccc1OP(C)(=O)Nc1ccc(C)cc1C (stereo not given)	17.4
Cc1c2non([O-])c-2c(C)[n+](=O)[n+]1[O-]	-15.8
Oc1ccccc1CNc1ccccn1	8.06
Cc1c(NP(C)(=O)Oc2ccc(C(C)C)cc2)c(=O)n(-c2ccccc2)n1C (stereo not given)	-2.27
O=[N+]([O-])c1cccc2n[nH]nc12	22.5
CC1CCN(C(=O)Oc2c(Cl)cc(Cl)c3cccnc23)CC1	-19.1
CCOP(C)(=S)SCC(=O)NC(C)C(=O)O (stereo not given)	15.8
Cc1ccc(NP(C)(=O)Oc2ccccc2)c(C)c1 (stereo not given)	-19.1
COc1ccccc1OP(C)(=O)Nc1ccc(C)cc1 (stereo not given)	-10.7
O=C(OC1CN2CCC1CC2)C12CC3CC(CC(C3)C1)C2 (stereo not given)	6.45
Cc1cc(C)cc(OP(C)(=O)Nc2ccccn2)c1 (stereo not given)	10
O=P1(Nc2ccc(Br)cn2)COc2ccccc2OC1	18.5
COc1ccccc1OP(C)(=O)Nc1c(C)cccc1C (stereo not given)	22.7
O=P1(Nc2ncccn2)COc2ccccc2OC1	7.41
CC1(CBr)Cn2c(nc3ccccc3c2=O)S1 (stereo not given)	0
